Here are results for 7 substances from publication doi:10.1101/477745.

In experiment [1] the target is T1, Era fused to SB (small bit of luciferase) (S. aureus) (UniProt Q2FGF6).
T1 sequence: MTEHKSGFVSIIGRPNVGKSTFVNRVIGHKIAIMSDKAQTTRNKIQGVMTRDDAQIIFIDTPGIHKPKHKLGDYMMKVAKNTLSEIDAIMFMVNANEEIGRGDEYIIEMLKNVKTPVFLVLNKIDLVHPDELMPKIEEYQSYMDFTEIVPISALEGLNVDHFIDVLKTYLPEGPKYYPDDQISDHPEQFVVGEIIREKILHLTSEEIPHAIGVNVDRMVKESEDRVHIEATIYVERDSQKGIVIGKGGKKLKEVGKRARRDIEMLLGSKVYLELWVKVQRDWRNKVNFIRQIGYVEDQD
The experiment in a line: split reporter.

Another experiment addresses T2, GST-Era (S. aureus) (UniProt Q2FGF6).
T2 sequence: T1 sequence
The experiment in a line: pull-down.

A further experiment has as its target T3, Era-T25 (S. aureus) (UniProt Q2FGF6).
T3 sequence: T1 sequence
The experiment in a line: two-hybrid.

Results are given in words; binding and its absence hold for the method and conditions named. For some of these results: Binding can be weak; no strength is given. For some of these results: Sequences can lack the tags named with a protein. For some of these results: Binding seen in cells or lysates may run through a third protein.

As for “DgkA (split luciferase fusion) (from UniProt A0A0H2XF69)”, the binding result in experiment [1] is “no binding”.
On to His-tagged YbeY (S. aureus), for which the binding result with GST-Era (S. aureus) is listed as “binds”.
On to “RecO (bacterial two-hybrid fusion) (S. aureus)”, for which, in the experiment with Era-T25 (S. aureus), the binding entry is “no binding”.
For “RecO (split luciferase fusion) (S. aureus)”, the binding result in experiment [1] is “no binding”.
In the case of T18-YbeY (S. aureus), in the experiment with Era-T25 (S. aureus), the binding result is recorded as “binds”.
Regarding T18-YbeZ (S. aureus), the binding entry with Era-T25 (S. aureus) is “binds”.
On to “YbeZ (split luciferase fusion) (S. aureus)”, for which the binding result in experiment [1] is “no binding”.
